In US5846934A, “Pure somatostatin antagonist and methods of use thereof” (American Cyanamid Company, priority 1997, dated 1998):
Part of at least one peptide drawing is inferred or uncertain, most often the ends. Positions of bridges follow the written chain, without caps; N, C: chain ends. Non-standard residues stand in square brackets, D forms with d. Residues, ends and D or L forms follow the SMILES beside them. Phe(4-NO2) = N[C@@H](Cc1ccc([N+](=O)[O-])cc1)C(=O)O; dPhe(4-NO2) = N[C@H](Cc1ccc([N+](=O)[O-])cc1)C(=O)O; NMeA = CN[C@@H](C)C(=O)O

Amino acid sequences for entries named in this document (tags omitted). A change or cut given only in a name is not applied to a line headed by its entry.
UniProt P30680: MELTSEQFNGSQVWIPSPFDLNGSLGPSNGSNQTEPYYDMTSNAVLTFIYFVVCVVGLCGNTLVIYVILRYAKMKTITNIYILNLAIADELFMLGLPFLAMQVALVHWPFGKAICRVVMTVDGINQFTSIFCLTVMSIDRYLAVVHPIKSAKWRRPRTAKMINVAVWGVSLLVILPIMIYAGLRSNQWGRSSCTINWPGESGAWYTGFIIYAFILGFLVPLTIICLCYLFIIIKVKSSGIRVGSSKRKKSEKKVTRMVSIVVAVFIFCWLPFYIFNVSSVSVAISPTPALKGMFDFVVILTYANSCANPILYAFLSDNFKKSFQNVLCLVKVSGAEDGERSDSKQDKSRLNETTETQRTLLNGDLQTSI

How the values were obtained:
[1] = target: T1, rat somatostatin receptor subtype 2 (SSTR2) (Rattus norvegicus, UniProt P30680); test: Yeast assay, somatostatin agonist activity (zone of growth of modified yeast cells); assay type: cell-based; parameters: key: 1 is minimum agonist activity; 5 is maximum agonist activity; --: When no activity is observed, the result is indicated by a dash; conditions: rating on a scale of 1-5 from zone of growth; S. cerevisiae LY364 expressing rat SSTR2
T1 construct: expressed in transfected cells; host or cells: Saccharomyces cerevisiae LY364 bearing pJH2 (SSTR2) and pLP82 (G protein)
Protocol: (§1) In this evaluation, yeast cells which have been specifically modified to functionally express rat somatostatin receptor subtype 2 (SSTR2) on their cell surfaces are used. S. Cerevisiae LY364 cells are plated in a standard synthetic agar medium which lacks histidine. In the absence of a somatostatin receptor agonist, the auxotrophic (his3) cells are unable to grow. In the presence of somatostatin, or a somatostatin agonist, the expression of an enzyme (His3p: imidazole-glycerol phosphate dehydratase) which is essential for histidine biosynthesis is induced. The cells become competent to produce histidine, resulting in a zone of growing cells around the applied test compound. The zone is measured and the test compound is given an agonist rating on a scale of 1-5 wherein 1 is minimum agonist activity and 5 is maximum agonist activity.
1) Inoculate 2 mL SCD-ura-trp liquid medium in Falcon 2051 tube with a single colony taken from a plate containing LY364 (MATa ura3-52 leu2 his3 trp1 lys2 ade2 far1:: LYS2 fus1:: FUS1-HIS3 gpa1::hisG sst2::.ADE2 bearing the SSTR2 expression plasmid, pJH2, and the G protein expression plasmid, pLP82) cells.
3) Add 1 mL of LY364 culture to 1 liter of agar medium.
8) Incubate plates at 30° C.
Day 5. Begin checking plates for growth around applied compounds.
(§2) Day 7. Growth in response to somatostatin should be readily observable. Rate extent of growth or inhibition of growth according to rating scale described hereinabove.

[2] = target: T1, rat somatostatin receptor subtype 2 (SSTR2); test: Yeast assay, somatostatin antagonist activity (zone of no growth in presence of S-14); assay type: cell-based; parameters: key: 1 is minimum antagonist activity; 5 is maximum antagonist activity; --: When no activity is observed, the result is indicated by a dash; conditions: rating on a scale of 1-5 from zone of no growth; 5 μL of 1 mg/mL S-14 added to each plate
Protocol: as §1
To evaluate the somatostatin antagonist activity of a test compound, the above procedure is followed except on day 3, 5 μL of 1 mg/mL of somatostatin, S-14, is added to each plate, before applying the test compound. If the test compound is an antagonist of somatostatin, then a zone of no growth will appear within the cell growth zone. This zone of no growth is measured and the test compound is given an antagonist rating on a scale of 1-5 wherein 1 is minimum antagonist activity and 5 is maximum antagonist activity.
The results are shown in Table I. When no activity is observed, the result is indicated by a dash.
On day 3, add 5 μL 1 mg/mL S-14 to each plate.
as §2

Row | Structure (SMILES) | Yeast Assay Agonist [1] | Yeast Assay Antagonist [2]
1 | C[C@@H](O)[C@@H]1NC(=O)[C@H](CCCCN)NC(=O)[C@@H](Cc2c[nH]c3ccccc23)NC(=O)[C@H](Cc2ccc(O)cc2)NC(=O)[C@H](NC(=O)[C@H](Cc2ccc([N+](=O)[O-])cc2)NC(=O)c2ccc3ccccc3c2)CSSC[C@@H](C(=O)N[C@@H](Cc2ccc(O)cc2)C(N)=O)NC1=O [Napc-4-NO2 Phe Tyr Lys Thr Tyr] | -- | 1
2 | CC(C)[C@@H]1NC(=O)[C@H](CCCCN)NC(=O)[C@@H](Cc2c[nH]c3ccccc23)NC(=O)[C@H](Cc2ccc(O)cc2)NC(=O)[C@H](NC(=O)[C@@H](N)Cc2ccc([N+](=O)[O-])cc2)CSSC[C@@H](C(=O)N(C)[C@@H](C)C(N)=O)NC1=O [4-NO2 Phe Tyr Lys Val N(CH3)Ala, H-p-No2 Phe-D-Cys-Tyr-D-Trp-Lys-Val-Cys-N(CH3) Ala-NH2] (H-[Phe(4-NO2)][dC]Y[dW]KVC[NMeA]-NH2; disulfide 2-7) | -- | 3
3 | CC(C)[C@@H]1NC(=O)[C@H](CCCCN)NC(=O)[C@@H](Cc2c[nH]c3ccccc23)NC(=O)[C@H](Cc2ccc(O)cc2)NC(=O)[C@H](NC(=O)[C@H](N)Cc2ccc([N+](=O)[O-])cc2)CSSC[C@@H](C(=O)N[C@@H](Cc2ccc(O)cc2)C(N)=O)NC1=O [4-NO2 -DPhe Tyr Lys Val Tyr] (H-[dPhe(4-NO2)][dC]Y[dW]KVCY-NH2; disulfide 2-7) | -- | 2
4 | C[C@@H](O)[C@@H]1NC(=O)[C@H](CCCCN)NC(=O)[C@@H](Cc2c[nH]c3ccccc23)NC(=O)[C@H](Cc2ccc(O)cc2)NC(=O)[C@H](NC(=O)[C@H](Cc2ccc(I)cc2)NC(=O)c2ccc3ccccc3c2)CSSC[C@@H](C(=O)N[C@H](Cc2ccc(O)cc2)C(N)=O)NC1=O [Napc-4-IPhe Tyr Lys Thr D-Tyr] | -- | 2
